{"source": "PubChem BioAssay AID493014", "about": "(National Center for Advancing Translational Sciences (NCATS), 2011)", "experiment": "qHTS Assay to Find Inhibitors of Chronic Active B-Cell Receptor Signaling", "conditions": "ABC-DLBCL IkBa-CBG/CBR reporter, luminescence ratio (green luciferase fused to IkBa over red control in TMD8 lymphoma cells), 4 h", "summary_of_the_method": "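TMD8 ABC-DLBCL cells carrying doxycycline-inducible green luciferase fused to IkappaBalpha plus unfused red luciferase were exposed to compounds (up to 46 uM) for 4 hrs at 37C. Activity came from the overlap-corrected green/red luminescence ratio.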", "key": {"[1]": {"conditions": "measured here: CBR red luminescence, cell number"}, "[2]": {"conditions": "measured here: IkBa-CBG green luminescence"}}, "note": "This is one part of the list. The main result of the screen is listed elsewhere. These columns were measured beside it and carry no call. Compounds called inactive in the main read-out are mostly missing here. The note in brackets gives the kind of curve behind each potency; many fits are weak."}
{"smiles": "CNC(=O)c1ccsc1NC(=O)c1ccc(Cl)s1", "values": [{"measurement": "AC50", "setting": "[1]", "value": "8.2 µM [falling, partial curve]"}]}
{"smiles": "O=C(c1c(F)c(F)c(F)c(F)c1F)N1CCN(c2cccc(C(F)(F)F)c2)CC1", "values": [{"measurement": "AC50", "setting": "[1]", "value": "29.1 µM [rising, single point]"}, {"measurement": "AC50", "setting": "[2]", "value": "29.1 µM [falling, single point]"}]}
{"smiles": "O=c1cc(-c2ccccc2)n(S(=O)(=O)c2ccccc2)o1", "values": [{"measurement": "AC50", "setting": "[1]", "value": "7.31 µM [falling, single point]"}]}
{"smiles": "CCN(C(=O)COC(=O)/C=C/c1cnc2ccccc2n1)c1ccccc1", "values": [{"measurement": "AC50", "setting": "[1]", "value": "5.62 µM [falling, single point]"}]}
{"smiles": "O=C(Nc1ccc2ccccc2c1)c1ccc(NS(=O)(=O)c2ccc(Br)s2)cc1", "values": [{"measurement": "AC50", "setting": "[1]", "value": "13 µM [falling, partial curve]"}]}
{"smiles": "CC[C@H](C)Cc1cn([C@@H](CCCN=C(N)N)C(=O)NCCCCCCCCCCC(=O)N2CCNCC2)nn1", "values": [{"measurement": "AC50", "setting": "[1]", "value": "2.31 µM [rising, single point]"}]}
{"smiles": "COc1ccc(NC(=S)NC2CCCCC2)cn1", "values": [{"measurement": "AC50", "setting": "[1]", "value": "35.5 µM [falling, single point]"}]}
{"smiles": "Cc1ccccc1OCCC(=O)NNC(=O)COc1cccc(F)c1", "values": [{"measurement": "AC50", "setting": "[1]", "value": "0.461 µM [rising, full curve, poor fit]"}]}
{"smiles": "O=C(N1CCC(n2nc(-c3ccccc3)oc2=O)CC1)C1(c2ccccc2)CC1", "values": [{"measurement": "AC50", "setting": "[1]", "value": "22.4 µM [falling, single point]"}]}
{"smiles": "O=C1c2ccccc2C(=O)N1CCCc1cn(C[C@H]2CC[C@@H]([C@@H]3CC[C@H](Cn4cc(CCCN5C(=O)c6ccccc6C5=O)nn4)O3)O2)nn1", "values": [{"measurement": "AC50", "setting": "[1]", "value": "1.41 µM [rising, partial curve, poor fit]"}]}
{"smiles": "O=C1CN(C(=O)/C=C/c2ccccc2F)c2ccccc2N1", "values": [{"measurement": "AC50", "setting": "[1]", "value": "31.6 µM [falling, single point]"}]}
{"smiles": "Cc1ccccc1N1C(=O)[C@@H]2Cc3ccccc3CN2C1=O", "values": [{"measurement": "AC50", "setting": "[1]", "value": "0.164 µM [falling, full curve, poor fit]"}]}
{"smiles": "CC(/C=N/NC(=O)c1cc(-c2ccc3ccccc3c2)n[nH]1)=C\\c1ccco1", "values": [{"measurement": "AC50", "setting": "[1]", "value": "2.59 µM [rising, full curve, poor fit]"}]}
{"smiles": "Cc1nonc1C1CCCN1Cc1cn[nH]c1-c1ccc(-c2ccccc2)cc1", "note": "(configuration not stated)", "values": [{"measurement": "AC50", "setting": "[1]", "value": "35.5 µM [rising, single point]"}]}
{"smiles": "COc1ccc(OC)c(N(CC(=O)NC2CC2)S(=O)(=O)c2ccc(C)cc2)c1", "values": [{"measurement": "AC50", "setting": "[1]", "value": "25.1 µM [falling, single point]"}]}
{"smiles": "COc1ccc(/C=N/NC(=O)c2ccccc2[N+](=O)[O-])cc1CN1CCc2cc(OC)c(OC)cc2C1C", "note": "(configuration not stated)", "values": [{"measurement": "AC50", "setting": "[1]", "value": "10 µM [falling, partial curve, poor fit]"}]}
{"smiles": "COc1cc(OC)c(-c2nn3c(-c4cccnc4)nnc3s2)cc1OC", "values": [{"measurement": "AC50", "setting": "[1]", "value": "3.16 µM [rising, full curve, poor fit]"}]}
{"smiles": "CCOc1ccccc1C(=O)Nc1cc(C)ccc1NC(=O)c1ccco1", "values": [{"measurement": "AC50", "setting": "[1]", "value": "35.5 µM [falling, partial curve, poor fit]"}]}
{"smiles": "CCN(CC)S(=O)(=O)c1cccc(NC(=O)COC(=O)CNC(=O)c2cccc(F)c2)c1", "values": [{"measurement": "AC50", "setting": "[1]", "value": "35.5 µM [rising, single point]"}]}
{"smiles": "CCOc1cc(N2CCOCC2)c(OCC)cc1NC(=O)CN1C(=O)NC2(CCCCCCC2)C1=O", "values": [{"measurement": "AC50", "setting": "[1]", "value": "4.47 µM [rising, full curve]"}]}
{"smiles": "CCn1cc(C2=NC(CCSC)CO2)c2ccccc21", "note": "(configuration not stated)", "values": [{"measurement": "AC50", "setting": "[1]", "value": "2.51 µM [rising, full curve]"}]}
{"smiles": "CC(=C/c1ccco1)/C=N/N1CCN(c2ccccc2)CC1", "values": [{"measurement": "AC50", "setting": "[1]", "value": "2.24 µM [rising, partial curve, poor fit]"}]}
{"smiles": "C=CCNC(=S)NNC(=O)c1ccccc1", "values": [{"measurement": "AC50", "setting": "[1]", "value": "0.00411 µM [falling, full curve, poor fit]"}]}
{"smiles": "CCCn1nc(NC(=O)c2cccs2)c2cc3cccc(C)c3nc21", "values": [{"measurement": "AC50", "setting": "[1]", "value": "22.4 µM [falling, single point]"}]}
{"smiles": "CC1(C)Cc2cccc(C(=O)NCc3ccco3)c2O1", "values": [{"measurement": "AC50", "setting": "[1]", "value": "10 µM [falling, partial curve, poor fit]"}]}
{"smiles": "Cc1ccccc1OCC(O)Cn1c(NCc2ccco2)nc2c1c(=O)[nH]c(=O)n2C", "note": "(configuration not stated)", "values": [{"measurement": "AC50", "setting": "[1]", "value": "0.103 µM [rising, partial curve, poor fit]"}]}
{"smiles": "Nc1ccc(-c2nc3c(ccc4ccccc43)[nH]2)cc1", "values": [{"measurement": "AC50", "setting": "[1]", "value": "10 µM [falling, partial curve]"}]}
{"smiles": "CC(C)C(NC(=O)c1ccccc1)C(=O)OCC(=O)N1CCCC1", "note": "(configuration not stated)", "values": [{"measurement": "AC50", "setting": "[1]", "value": "29.1 µM [rising, partial curve, poor fit]"}]}
{"smiles": "COC(=O)c1ccc(CSc2nc3ccccc3c(=O)n2-c2ccccc2)o1", "values": [{"measurement": "AC50", "setting": "[1]", "value": "23.1 µM [rising, partial curve, poor fit]"}]}
{"smiles": "O=C1/C(=C\\c2ccc(Br)o2)SC(=Nc2ccccc2)N1c1ccccc1", "values": [{"measurement": "AC50", "setting": "[1]", "value": "12.6 µM [rising, partial curve, poor fit]"}]}
{"smiles": "c1ccc2c(c1)nc(N1CCN(C3CCCCC3)CC1)c1nnnn12", "values": [{"measurement": "AC50", "setting": "[1]", "value": "0.517 µM [falling, full curve, poor fit]"}]}
{"smiles": "CCOc1ccc(NC(=O)C(C)O)c(NS(=O)(=O)c2ccc(CCNC(C)=O)cc2)c1", "note": "(configuration not stated)", "values": [{"measurement": "AC50", "setting": "[1]", "value": "29.1 µM [rising, single point]"}]}
{"smiles": "Cc1ccc(-n2nc(C)c(/C=N/n3c(C)n[nH]c3=S)c2Cl)cc1", "values": [{"measurement": "AC50", "setting": "[1]", "value": "11.2 µM [rising, partial curve]"}]}
{"smiles": "CN(C)C(CNC(=O)c1ccc(Br)cc1)c1ccco1", "note": "(configuration not stated)", "values": [{"measurement": "AC50", "setting": "[1]", "value": "35.5 µM [rising, single point]"}]}
{"smiles": "Cc1ccc2[nH]cc(C(=O)CCl)c2c1", "values": [{"measurement": "AC50", "setting": "[1]", "value": "20.6 µM [falling, partial curve]"}]}
{"smiles": "CCOC(=O)C(Sc1n[nH]c(N)n1)c1ccccc1", "note": "(configuration not stated)", "values": [{"measurement": "AC50", "setting": "[1]", "value": "23.1 µM [rising, single point]"}]}
{"smiles": "CSCC[C@H](NC(=O)CCn1nnc2ccccc2c1=O)C(=O)O", "values": [{"measurement": "AC50", "setting": "[1]", "value": "22.4 µM [falling, single point]"}]}
{"smiles": "O=C(NC(=S)N1CCN(C/C=C/c2ccccc2)CC1)c1ccc(F)cc1", "values": [{"measurement": "AC50", "setting": "[2]", "value": "12.6 µM [falling, partial curve, poor fit]"}]}
{"smiles": "Cc1c(Cl)sn(-c2ccc(Cl)cc2)c1=O", "values": [{"measurement": "AC50", "setting": "[1]", "value": "35.5 µM [falling, single point]"}]}
{"smiles": "O=C1OC(c2ccccc2)=N/C1=C\\N1CCCCC1", "values": [{"measurement": "AC50", "setting": "[1]", "value": "15.8 µM [rising, partial curve]"}]}
{"smiles": "CS(=O)(=O)c1ccccc1-c1nc(-c2ccc([N+](=O)[O-])cc2)no1", "values": [{"measurement": "AC50", "setting": "[1]", "value": "11.2 µM [rising, partial curve]"}]}
